Binding data for two molecules are collected here from article PMC6791687.

By UniProt entry, the sequences of proteins in these tests, tags left out.
UniProt Q8W234: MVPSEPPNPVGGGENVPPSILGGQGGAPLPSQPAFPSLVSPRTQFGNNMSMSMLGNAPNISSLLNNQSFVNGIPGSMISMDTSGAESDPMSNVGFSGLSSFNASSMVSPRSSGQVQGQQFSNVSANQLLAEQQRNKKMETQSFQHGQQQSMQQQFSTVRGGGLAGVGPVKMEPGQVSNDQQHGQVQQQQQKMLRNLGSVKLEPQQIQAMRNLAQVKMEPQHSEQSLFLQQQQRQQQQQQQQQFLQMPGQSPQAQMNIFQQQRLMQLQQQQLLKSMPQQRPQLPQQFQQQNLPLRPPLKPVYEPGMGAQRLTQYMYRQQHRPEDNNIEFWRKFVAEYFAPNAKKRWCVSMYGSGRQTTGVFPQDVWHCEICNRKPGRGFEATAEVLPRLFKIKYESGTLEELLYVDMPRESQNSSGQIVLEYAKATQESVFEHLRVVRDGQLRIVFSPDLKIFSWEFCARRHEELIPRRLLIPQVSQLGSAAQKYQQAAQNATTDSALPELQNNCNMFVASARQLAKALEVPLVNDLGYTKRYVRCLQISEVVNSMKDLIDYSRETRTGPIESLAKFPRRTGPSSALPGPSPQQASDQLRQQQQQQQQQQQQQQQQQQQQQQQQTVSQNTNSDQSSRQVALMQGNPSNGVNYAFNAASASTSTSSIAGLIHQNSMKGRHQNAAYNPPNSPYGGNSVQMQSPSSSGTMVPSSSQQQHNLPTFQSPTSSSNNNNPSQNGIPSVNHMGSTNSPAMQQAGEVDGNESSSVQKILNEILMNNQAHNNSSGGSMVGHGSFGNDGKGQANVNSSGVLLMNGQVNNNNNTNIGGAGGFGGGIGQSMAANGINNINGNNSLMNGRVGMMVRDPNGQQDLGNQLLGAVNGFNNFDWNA

Assay [1] concerns the target T1, FAMA-TbID-Venus (UBQ10pro::cFAMA-TbID-mVenus) (Arabidopsis thaliana) (UniProt Q56YJ8).
T1 sequence: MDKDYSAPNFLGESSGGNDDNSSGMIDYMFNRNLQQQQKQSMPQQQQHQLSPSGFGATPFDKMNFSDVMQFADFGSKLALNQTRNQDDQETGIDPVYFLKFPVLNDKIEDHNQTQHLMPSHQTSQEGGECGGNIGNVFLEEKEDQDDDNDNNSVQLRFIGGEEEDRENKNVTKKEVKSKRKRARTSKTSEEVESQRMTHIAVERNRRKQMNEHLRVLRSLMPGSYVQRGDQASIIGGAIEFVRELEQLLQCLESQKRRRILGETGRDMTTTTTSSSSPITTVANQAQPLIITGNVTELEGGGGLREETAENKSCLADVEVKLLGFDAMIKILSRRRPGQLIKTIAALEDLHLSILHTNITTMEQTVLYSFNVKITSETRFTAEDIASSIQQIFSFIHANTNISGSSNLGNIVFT
Put plainly: proximity labelling; pairwise: FAMA-TbID-Venus or TbID-YFPNLS co-expressed with HA- or myc-tagged candidates in N. benthamiana leaves (UBQ10 promoter), no exogenous biotin; streptavidin bead pulldown of biotinylated proteins, immunoblot for the tag. In general terms: A western blot detects proteins with antibodies after separation by electrophoresis.

Assay [2] concerns the target T2, FAMA-CFP (FAMApro::FAMA-CFP in fama-1) (Arabidopsis thaliana) (UniProt Q56YJ8).
T2 sequence: T1 sequence
Briefly: affinity purification with mass spectrometry; FAMA-CFP from 15 g of 4-day-old Arabidopsis seedlings treated with MG-132 and cross-linked with formaldehyde (0.25% or 0.125%), GFP-Trap beads, LC-MS/MS; controls: nuclear GFP lines (SPCHpro::GFPNLS, MUTEpro::GFPNLS).

Assay [3] addresses T3, FAMA-TbID-Venus (FAMApro::FAMA-TbID-mVenus in fama-1) (Arabidopsis thaliana) (UniProt Q56YJ8).
T3 sequence: T1 sequence
Briefly: proximity labelling; FAMApro::FAMA-TbID-Venus in 5-day-old Arabidopsis seedlings, 50 uM biotin for 0, 0.5 or 3 h; biotinylated proteins purified on streptavidin beads, on-bead digest, LC-MS/MS with label-free quantification; filtered for enrichment against WT, nuclear TbID (FAMAnucTbID) and untreated samples; three biological replicates.

No constants are given. Whether binding was seen depends on the method and setting. Binding seen in cells or lysates may run through a third protein. A yes stands for co-enrichment or nearness to the bait. Other partners may have been found. For part of these data: Sequences can lack the tags named with a protein.

For SEU-4xmyc (from UniProt Q8W234 1-877), in assay [1], the binding result was “binds”.

B1: INDUCER OF CBF EXPRESSION 1 (protein, UniProt Q9LSE2 1-494)
chain: MGLDGNNGGGVWLNGGGGEREENEEGSWGRNQEDGSSQFKPMLEGDWFSSNQPHPQDLQMLQNQPDFRYFGGFPFNPNDNLLLQHSIDSSSSCSPSQAFSLDPSQQNQFLSTNNNKGCLLNVPSSANPFDNAFEFGSESGFLNQIHAPISMGFGSLTQLGNRDLSSVPDFLSARSLLAPESNNNNTMLCGGFTAPLELEGFGSPANGGFVGNRAKVLKPLEVLASSGAQPTLFQKRAAMRQSSGSKMGNSESSGMRRFSDDGDMDETGIEVSGLNYESDEINESGKAAESVQIGGGGKGKKKGMPAKNLMAERRRRKKLNDRLYMLRSVVPKISKMDRASILGDAIDYLKELLQRINDLHNELESTPPGSLPPTSSSFHPLTPTPQTLSCRVKEELCPSSLPSPKGQQARVEVRLREGRAVNIHMFCGRRPGLLLATMKALDNLGLDVQQAVISCFNGFALDVFRAEQCQEGQEILPDQIKAVLFDTAGYAGMI
Regarding B1, the binding entry in assay [2] and in assay [3] was “binds” throughout.
